Assay results: PMC11079023

Key:
Test in all cases: two-hybrid; BD-M5DELLA (pGBKT7, RGA 199-587 and variants) and AD-JAZ1, AD-TCP14, AD-IDD2 or AD-BZR1 (pGADT7) co-transformed in yeast AH109; growth on selective medium lacking tryptophan, leucine and histidine, in some cases with 3AT
[1] = target: T1, BD-M5RGA (C-terminal part of RGA, amino acids 199 to 587, fused to the GAL4 DNA-binding domain) (Arabidopsis) (UniProt Q9SLH3)
T1 sequence: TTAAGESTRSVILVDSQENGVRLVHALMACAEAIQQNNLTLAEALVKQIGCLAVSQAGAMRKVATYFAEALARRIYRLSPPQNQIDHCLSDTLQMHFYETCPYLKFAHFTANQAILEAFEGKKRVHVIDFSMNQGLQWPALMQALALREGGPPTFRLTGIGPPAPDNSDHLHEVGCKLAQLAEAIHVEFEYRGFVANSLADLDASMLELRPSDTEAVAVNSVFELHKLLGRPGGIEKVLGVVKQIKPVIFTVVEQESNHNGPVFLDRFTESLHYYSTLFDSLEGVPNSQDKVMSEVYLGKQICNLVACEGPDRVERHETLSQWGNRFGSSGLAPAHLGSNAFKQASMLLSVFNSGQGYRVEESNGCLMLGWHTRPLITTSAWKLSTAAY

[2] = target: T2, BD-M5RGA^m2 (RGA 199-587 with H471A, Y472A, Y473A, fused to the GAL4 DNA-binding domain) (Arabidopsis) (UniProt Q9SLH3)
T2 sequence: T1 sequence with H273A, Y274A, Y275A

[3] = target: T3, BD-M5RGA^m1 (RGA 199-587 with G218A, V219A, R220A, fused to the GAL4 DNA-binding domain) (Arabidopsis) (UniProt Q9SLH3)
T3 sequence: T1 sequence with G20A, V21A, R22A

[4] = target: T4, BD-M5RGA^m4 (RGA 199-587 with S578D, fused to the GAL4 DNA-binding domain) (Arabidopsis) (UniProt Q9SLH3)
T4 sequence: T1 sequence with S380D

[5] = target: T5, BD-M5RGA^m3 (RGA from amino acid 199 with S578Stop, fused to the GAL4 DNA-binding domain) (Arabidopsis) (UniProt Q9SLH3)
T5 sequence: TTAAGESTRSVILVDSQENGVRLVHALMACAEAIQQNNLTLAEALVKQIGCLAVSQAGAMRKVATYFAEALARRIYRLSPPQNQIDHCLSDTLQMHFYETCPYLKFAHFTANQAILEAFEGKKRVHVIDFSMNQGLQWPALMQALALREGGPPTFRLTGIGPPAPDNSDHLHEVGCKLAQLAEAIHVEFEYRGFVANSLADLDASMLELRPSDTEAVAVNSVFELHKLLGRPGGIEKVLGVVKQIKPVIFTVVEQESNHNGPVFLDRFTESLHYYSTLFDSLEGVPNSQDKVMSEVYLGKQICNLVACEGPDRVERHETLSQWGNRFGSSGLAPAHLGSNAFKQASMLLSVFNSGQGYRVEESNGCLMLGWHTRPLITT

- binding [1]: binds
- binding [2]: no binding
- binding [3]: binds
- binding [4]: no binding
- binding [5]: no binding
Substance: AD-JAZ1

Changes are numbered by the printed parent chain. Results are given in words; binding and its absence hold for the method and conditions named. For some assays here: A result given as binding can be weak or reduced; the word gives no strength. Tags and fused reporters may be left off the sequences shown.
